In article PMC5312387:
No constants are given. Whether binding was seen depends on the method and setting. In cells and extracts the contact can be indirect. Some entries that bind do so weakly or less than the wild type.

By UniProt entry, the sequences of proteins in these tests, tags left out. Residues count along the entry.
UniProt P29317, residues 24-976: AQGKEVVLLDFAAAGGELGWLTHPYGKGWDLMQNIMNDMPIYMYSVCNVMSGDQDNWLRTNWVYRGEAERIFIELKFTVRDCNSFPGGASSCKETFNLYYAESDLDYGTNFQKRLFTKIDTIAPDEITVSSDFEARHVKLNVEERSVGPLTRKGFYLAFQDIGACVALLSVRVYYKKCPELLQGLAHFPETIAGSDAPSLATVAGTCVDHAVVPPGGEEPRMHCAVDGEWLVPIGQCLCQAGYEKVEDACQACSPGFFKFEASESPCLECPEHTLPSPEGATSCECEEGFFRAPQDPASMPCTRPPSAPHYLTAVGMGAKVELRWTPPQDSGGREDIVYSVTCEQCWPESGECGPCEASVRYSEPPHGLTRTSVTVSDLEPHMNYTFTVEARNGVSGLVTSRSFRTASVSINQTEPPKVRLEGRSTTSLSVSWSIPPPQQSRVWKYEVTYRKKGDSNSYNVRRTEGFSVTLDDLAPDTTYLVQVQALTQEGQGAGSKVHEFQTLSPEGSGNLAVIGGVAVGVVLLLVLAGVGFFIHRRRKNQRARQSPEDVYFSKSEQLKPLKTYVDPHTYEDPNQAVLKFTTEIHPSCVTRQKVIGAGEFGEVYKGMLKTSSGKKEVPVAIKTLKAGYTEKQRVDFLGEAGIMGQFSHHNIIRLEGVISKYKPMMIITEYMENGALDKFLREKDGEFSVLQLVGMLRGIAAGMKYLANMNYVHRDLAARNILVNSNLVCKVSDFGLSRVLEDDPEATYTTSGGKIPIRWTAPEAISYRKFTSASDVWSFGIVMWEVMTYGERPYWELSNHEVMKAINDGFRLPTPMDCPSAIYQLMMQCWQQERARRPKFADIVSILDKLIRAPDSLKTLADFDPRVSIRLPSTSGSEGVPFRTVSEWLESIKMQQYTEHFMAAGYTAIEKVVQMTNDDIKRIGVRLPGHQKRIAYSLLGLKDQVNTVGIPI
UniProt P54764, residues 20-986: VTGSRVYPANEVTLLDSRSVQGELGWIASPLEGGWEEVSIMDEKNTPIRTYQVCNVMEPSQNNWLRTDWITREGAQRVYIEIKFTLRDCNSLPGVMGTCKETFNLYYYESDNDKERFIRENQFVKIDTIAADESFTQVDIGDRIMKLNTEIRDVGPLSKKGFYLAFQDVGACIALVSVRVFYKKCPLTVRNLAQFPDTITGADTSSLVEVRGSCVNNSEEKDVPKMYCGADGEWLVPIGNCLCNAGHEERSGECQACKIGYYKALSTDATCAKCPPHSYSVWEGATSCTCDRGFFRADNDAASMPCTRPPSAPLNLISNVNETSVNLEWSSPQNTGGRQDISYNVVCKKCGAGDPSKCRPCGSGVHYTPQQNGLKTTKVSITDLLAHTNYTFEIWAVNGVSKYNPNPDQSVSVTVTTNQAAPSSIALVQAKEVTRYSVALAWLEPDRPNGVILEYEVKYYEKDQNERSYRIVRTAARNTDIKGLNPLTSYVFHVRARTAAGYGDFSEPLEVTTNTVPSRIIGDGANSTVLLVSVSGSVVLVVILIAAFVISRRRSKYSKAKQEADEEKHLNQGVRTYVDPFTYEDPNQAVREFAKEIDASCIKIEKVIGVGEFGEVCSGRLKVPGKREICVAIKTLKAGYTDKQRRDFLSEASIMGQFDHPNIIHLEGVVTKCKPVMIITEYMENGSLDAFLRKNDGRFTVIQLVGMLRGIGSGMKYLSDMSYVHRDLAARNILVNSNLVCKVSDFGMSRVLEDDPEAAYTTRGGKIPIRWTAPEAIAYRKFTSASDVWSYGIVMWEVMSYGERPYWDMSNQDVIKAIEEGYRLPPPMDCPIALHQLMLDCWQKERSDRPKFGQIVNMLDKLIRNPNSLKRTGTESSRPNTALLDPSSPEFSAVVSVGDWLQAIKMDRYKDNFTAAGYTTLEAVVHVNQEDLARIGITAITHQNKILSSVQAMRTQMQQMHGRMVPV
UniProt P54756, residues 25-1037: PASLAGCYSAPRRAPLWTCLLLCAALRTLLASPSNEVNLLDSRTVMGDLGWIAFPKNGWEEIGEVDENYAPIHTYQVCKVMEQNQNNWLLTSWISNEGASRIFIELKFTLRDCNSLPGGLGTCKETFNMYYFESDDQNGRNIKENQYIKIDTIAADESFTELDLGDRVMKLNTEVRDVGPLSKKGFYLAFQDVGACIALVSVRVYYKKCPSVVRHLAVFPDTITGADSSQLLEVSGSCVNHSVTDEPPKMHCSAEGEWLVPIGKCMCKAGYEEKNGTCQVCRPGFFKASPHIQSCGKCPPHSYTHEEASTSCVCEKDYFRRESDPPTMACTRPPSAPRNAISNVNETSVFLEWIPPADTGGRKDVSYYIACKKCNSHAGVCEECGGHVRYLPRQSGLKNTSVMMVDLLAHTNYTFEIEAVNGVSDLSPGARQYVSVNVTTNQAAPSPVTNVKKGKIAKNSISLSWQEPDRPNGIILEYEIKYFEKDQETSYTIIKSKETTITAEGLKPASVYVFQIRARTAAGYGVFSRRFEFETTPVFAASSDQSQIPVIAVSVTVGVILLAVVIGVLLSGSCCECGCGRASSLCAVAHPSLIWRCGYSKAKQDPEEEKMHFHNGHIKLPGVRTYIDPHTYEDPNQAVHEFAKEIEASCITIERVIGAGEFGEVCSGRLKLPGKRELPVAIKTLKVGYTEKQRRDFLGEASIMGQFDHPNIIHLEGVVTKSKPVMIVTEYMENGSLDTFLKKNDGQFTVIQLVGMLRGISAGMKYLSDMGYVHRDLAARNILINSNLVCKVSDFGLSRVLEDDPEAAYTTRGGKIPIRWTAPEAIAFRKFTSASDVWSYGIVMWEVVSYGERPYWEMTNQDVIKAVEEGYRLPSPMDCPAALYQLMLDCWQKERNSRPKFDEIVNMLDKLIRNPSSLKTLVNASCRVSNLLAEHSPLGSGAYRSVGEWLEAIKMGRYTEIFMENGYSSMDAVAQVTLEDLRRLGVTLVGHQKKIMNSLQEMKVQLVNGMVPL

T1: Ephrin B3 (human (endogenous in U-1810, H23 and U-1752)) (UniProt Q15768)
T1 sequence: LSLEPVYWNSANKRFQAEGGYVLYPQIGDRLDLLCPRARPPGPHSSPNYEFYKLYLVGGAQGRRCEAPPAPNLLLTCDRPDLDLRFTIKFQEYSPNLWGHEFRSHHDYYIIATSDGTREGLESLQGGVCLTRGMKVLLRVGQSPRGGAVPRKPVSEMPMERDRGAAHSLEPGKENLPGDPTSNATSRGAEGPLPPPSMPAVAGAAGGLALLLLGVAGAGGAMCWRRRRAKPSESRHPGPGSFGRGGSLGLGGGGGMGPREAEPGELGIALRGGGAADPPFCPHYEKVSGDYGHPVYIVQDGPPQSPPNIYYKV


Legend:
[1] = molecular target: T1, Ephrin B3 (human (endogenous in U-1810, H23 and U-1752)); assay: proximity ligation; PLA in situ on fixed untreated U-1810, H23 and U-1752 cells with Ephrin B3 and EphA2 antibodies (Duolink II)
[2] = molecular target: T1, Ephrin B3 (human (endogenous in U-1810, H23 and U-1752)); assay: co-IP; Ephrin B3 pull-down of EphA2 from the same U-1810 cell lysate as used for the kinase immunoprecipitations; data not shown
[3] = molecular target: T1, Ephrin B3 (human (endogenous in U-1810, H23 and U-1752)); assay: co-IP; Ephrin B3 immunoprecipitated from lysates of untreated U-1810, H23 and U-1752 cells (800 ug lysate; 25 mM Tris-HCl pH 7.4, 150 mM NaCl, 1 mM EDTA, 1% Nonidet P-40, 5% glycerol; protein G-Sepharose), western blot for Ephs
[4] = molecular target: T1, Ephrin B3 (human (endogenous in U-1810, H23 and U-1752)); assay: as above; remark: listed apart in the source

Row | binding [1] | binding [2] | binding [3] | binding [4] | Molecule
1 | binds | binds | binds |  | EphA2 (from UniProt P29317 24-976) (receptor)
2 |  |  | binds |  | EphA4 (from UniProt P54764 20-986) (receptor)
3 |  |  | binds |  | EphA5 (from UniProt P54756 25-1037) (receptor)
4 |  |  | binds |  | Ser897-phosphorylated EphA2 (from UniProt P29317 24-976) (receptor)
5 |  |  |  | binds | EphA3 (receptor, UniProt P29320 21-983) ELIPQPSNEVNLLDSKTIQGELGWISYPSHGWEEISGVDEHYTPIRTYQVCNVMDHSQNNWLRTNWVPRNSAQKIYVELKFTLRDCNSIPLVLGTCKETFNLYYMESDDDHGVKFREHQFTKIDTIAADESFTQMDLGDRILKLNTEIREVGPVNKKGFYLAFQDVGACVALVSVRVYFKKCPFTVKNLAMFPDTVPMDSQSLVEVRGSCVNNSKEEDPPRMYCSTEGEWLVPIGKCSCNAGYEERGFMCQACRPGFYKALDGNMKCAKCPPHSSTQEDGSMNCRCENNYFRADKDPPSMACTRPPSSPRNVISNINETSVILDWSWPLDTGGRKDVTFNIICKKCGWNIKQCEPCSPNVRFLPRQFGLTNTTVTVTDLLAHTNYTFEIDAVNGVSELSSPPRQFAAVSITTNQAAPSPVLTIKKDRTSRNSISLSWQEPEHPNGIILDYEVKYYEKQEQETSYTILRARGTNVTISSLKPDTIYVFQIRARTAAGYGTNSRKFEFETSPDSFSISGESSQVVMIAISAAVAIILLTVVIYVLIGRFCGYKSKHGADEKRLHFGNGHLKLPGLRTYVDPHTYEDPTQAVHEFAKELDATNISIDKVVGAGEFGEVCSGRLKLPSKKEISVAIKTLKVGYTEKQRRDFLGEASIMGQFDHPNIIRLEGVVTKSKPVMIVTEYMENGSLDSFLRKHDAQFTVIQLVGMLRGIASGMKYLSDMGYVHRDLAARNILINSNLVCKVSDFGLSRVLEDDPEAAYTTRGGKIPIRWTSPEAIAYRKFTSASDVWSYGIVLWEVMSYGERPYWEMSNQDVIKAVDEGYRLPPPMDCPAALYQLMLDCWQKDRNNRPKFEQIVSILDKLIRNPGSLKIITSAAARPSNLLLDQSNVDITTFRTTGDWLNGVWTAHCKEIFTGVEYSSCDTIAKISTDDMKKVGVTVVGPQKKIISSIKALETQSKNGPVPV
